From publication PMC7372013
These are yes or no findings as the source states them, for the method shown. Binding seen in cells or lysates may run through a third protein. A yes stands for co-enrichment or nearness to the bait. Other partners may have been found.

Protein sequences, listed by entry. Tags and fused reporters are not part of them. Residues count along the entry.
UniProt Q07021, residues 74-282: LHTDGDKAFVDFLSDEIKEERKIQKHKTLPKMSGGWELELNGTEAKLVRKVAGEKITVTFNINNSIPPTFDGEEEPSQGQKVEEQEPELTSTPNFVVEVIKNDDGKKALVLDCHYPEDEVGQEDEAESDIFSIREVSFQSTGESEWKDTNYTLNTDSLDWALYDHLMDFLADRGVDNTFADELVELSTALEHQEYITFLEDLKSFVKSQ
UniProt O00425: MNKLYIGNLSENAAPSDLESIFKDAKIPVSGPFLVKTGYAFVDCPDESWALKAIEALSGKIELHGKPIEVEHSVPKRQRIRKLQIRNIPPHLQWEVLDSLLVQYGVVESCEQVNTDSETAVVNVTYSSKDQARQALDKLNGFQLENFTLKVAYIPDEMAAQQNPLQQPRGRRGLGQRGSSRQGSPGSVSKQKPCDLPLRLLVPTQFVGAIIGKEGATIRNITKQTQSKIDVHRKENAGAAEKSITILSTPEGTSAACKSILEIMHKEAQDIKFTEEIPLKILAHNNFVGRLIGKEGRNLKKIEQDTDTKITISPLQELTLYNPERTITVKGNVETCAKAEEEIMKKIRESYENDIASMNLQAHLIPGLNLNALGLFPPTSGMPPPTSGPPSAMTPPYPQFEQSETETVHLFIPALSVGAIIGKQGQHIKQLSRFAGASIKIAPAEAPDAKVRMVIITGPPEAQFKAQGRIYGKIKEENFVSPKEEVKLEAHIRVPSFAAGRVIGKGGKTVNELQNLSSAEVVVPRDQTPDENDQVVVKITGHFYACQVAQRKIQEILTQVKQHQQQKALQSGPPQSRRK

Target: Globular C1q receptor (human (endogenous in H929, U266, MM1S)) (UniProt Q07021)
Experiment: affinity purification with mass spectrometry; CoIP-MS: mouse anti-gC1qR antibody on protein A magnetic beads, total protein of H929, U266 and MM1S in RIPA weak lysis buffer, rotated at 4 °C overnight; proteins found in all three cell lines

binding: binds
Substance: insulin-like growth factor 2 mRNA binding protein 3 (from UniProt O00425 1-579)
